28 compounds from the odorant receptor screen of Mainland et al. (2015) can be followed below.

Structures are written as SMILES. Values joined by “and” are separate entries in the source; they are usually repeats but may differ in a detail not shown here. Identical values can stand only once. The list shows a part of the results. Single wells; the ratio to wells without odorant was worked out here, and repeats agree poorly.

One test deals with OR10A2 H43R/H207R/K258T clone 1498. In words: odorant receptor activation (CRE luciferase / Renilla) (fold of no-odor wells); higher = more activation. The following applies: 100 µM.
On to `CC1CCC(C(C)C)C(O)C1` (single isomer, unassigned; (-)) [(-)-menthol], for which the odorant receptor activation amounted to 0.947.

`C=CCSCC=C` [diallyl sulfide] displayed an odorant receptor activation of 1.36.

`CC(C)=CCCC(C)=CC=O` [citral] had an odorant receptor activation of 1.21.

In the case of `COc1cc(C)ccc1O` [2-methoxy-4-methylphenol], the odorant receptor activation amounted to 0.722.

Turning to `CC(=O)OC(C)(C)C1CC=C(C)CC1` (centres undefined) [terpinyl acetate], the odorant receptor activation worked out at 1.

In turn, `CCCCCCCCC=O` [nonyl aldehyde] came in with an odorant receptor activation of 0.909.

For the compound `O=C1CCCCCCCCCCCC(=O)OCCO1` [ethylene brassylate], the odorant receptor activation came out at 1.58.

`CCCCCCCCOC(C)=O` [octyl acetate]: the odorant receptor activation amounted to 0.909.

`c1ccc(Oc2ccccc2)cc1` [diphenyl ether] had an odorant receptor activation of 1.32.

Turning to `CCCCCCCC=CC=O` [2-decenal], the odorant receptor activation is 1.24.

`CC(C)C(=O)O` [isobutyric acid]: the odorant receptor activation is 0.7 and 1.03.

As for `CCCCCCOC(=O)CCC` [hexyl butyrate], the odorant receptor activation is 0.343 and 0.836.

`C=CCc1ccc(O)c(OC)c1` [eugenol]: the odorant receptor activation was 0.997 and 1.4 and 1.57.

Take `CC(=O)OC1CC2CCC1(C)C2(C)C` (centres undefined) [isobornyl acetate]: the odorant receptor activation is 0.516 and 1.23.

Consider `CC(C)C=O` [isobutyraldehyde], for which the odorant receptor activation is 0.529 and 1.05.

With `CCCCCCCCCCC=O` [undecanal], the odorant receptor activation came to 1.17.

Compound `CC1=CCC(C(C)(C)O)CC1` (centres undefined) [terpineol] registered an odorant receptor activation of 0.874.

The compound `COC(=O)c1ccccc1O` [methyl salicylate] yielded an odorant receptor activation of 0.774.

Turning to `C=C(C)C1CC=C(C)C(=O)C1` (centres undefined) [r-carvone], the odorant receptor activation is 0.897.

As for `CCCCO` [1-butanol], the odorant receptor activation turned out to be 1.03.

For `CCC1(O)C2(C)CCC(C2)C1(C)C` (centres undefined) [2-ethylfenchol], the odorant receptor activation amounted to 1.01.

Take `CC12CCC(C1)C(C)(C)C2=O` (centres undefined) [fenchone]: the odorant receptor activation stood at 1.16.

As to `CCCCCCCC=O` [octyl aldehyde], the odorant receptor activation was 0.851.

Take `CC(C)CCC(=O)O` [4-methylvaleric acid]: the odorant receptor activation was determined as 1.02.

In turn, `C=CCc1ccc(OC)c(OC)c1` [eugenol methyl ether] showed an odorant receptor activation of 1.24.

Turning to `O=CCc1ccccc1` [phenyl acetaldehyde], the odorant receptor activation was determined as 1.27.

In turn, `CC1CCC(C(C)C)C(O)C1` (single isomer, unassigned; (+)) [(+)-menthol] had an odorant receptor activation of 0.921.

In turn, `C=CCc1ccc(OC(C)=O)c(OC)c1` [eugenol acetate] registered an odorant receptor activation of 1.81.

The next test deals with OR10A2 clone 1171. The test is described as above. To be noted: 100 µM.
As to `CC1CCC(C(C)C)C(O)C1` (single isomer, unassigned; (-)) [(-)-menthol], the odorant receptor activation came out at 0.949.

As for `C=CCSCC=C` [diallyl sulfide], the odorant receptor activation was 0.945.

`CC(C)=CCCC(C)=CC=O` [citral] yielded an odorant receptor activation of 1.16.

Regarding `COc1cc(C)ccc1O` [2-methoxy-4-methylphenol], the odorant receptor activation came out at 1.

In turn, `CC(=O)OC(C)(C)C1CC=C(C)CC1` (centres undefined) [terpinyl acetate] displayed an odorant receptor activation of 1.1.

The compound `CCCCCCCCC=O` [nonyl aldehyde] displayed an odorant receptor activation of 0.943.

`O=C1CCCCCCCCCCCC(=O)OCCO1` [ethylene brassylate] had an odorant receptor activation of 1.85.

Consider `CCCCCCCCOC(C)=O` [octyl acetate], for which the odorant receptor activation is 0.918.

As to `c1ccc(Oc2ccccc2)cc1` [diphenyl ether], the odorant receptor activation is 1.07.

The compound `CCCCCCCC=CC=O` [2-decenal] returned an odorant receptor activation of 0.941.

`CC(C)C(=O)O` [isobutyric acid] gave an odorant receptor activation of 1.11.

With `CCCCCCOC(=O)CCC` [hexyl butyrate], the odorant receptor activation is 1.23.

In the case of `C=CCc1ccc(O)c(OC)c1` [eugenol], the odorant receptor activation is 2.69 and 1.04.

The compound `CC(=O)OC1CC2CCC1(C)C2(C)C` (centres undefined) [isobornyl acetate] had an odorant receptor activation of 1.23.

The compound `CC(C)C=O` [isobutyraldehyde] returned an odorant receptor activation of 1.26.

As for `CCCCCCCCCCC=O` [undecanal], the odorant receptor activation worked out at 0.807.

`CC1=CCC(C(C)(C)O)CC1` (centres undefined) [terpineol] gave an odorant receptor activation of 1.02.

As for `COC(=O)c1ccccc1O` [methyl salicylate], the odorant receptor activation was 0.704.

Turning to `C=C(C)C1CC=C(C)C(=O)C1` (centres undefined) [r-carvone], the odorant receptor activation stood at 0.729.

`CCCCO` [1-butanol] came in with an odorant receptor activation of 1.13.

Regarding `CCC1(O)C2(C)CCC(C2)C1(C)C` (centres undefined) [2-ethylfenchol], the odorant receptor activation stood at 0.915.

Compound `CC12CCC(C1)C(C)(C)C2=O` (centres undefined) [fenchone] had an odorant receptor activation of 0.862.

The compound `CCCCCCCC=O` [octyl aldehyde] came in with an odorant receptor activation of 0.93.

Compound `CC(C)CCC(=O)O` [4-methylvaleric acid] yielded an odorant receptor activation of 0.902.

In the case of `C=CCc1ccc(OC)c(OC)c1` [eugenol methyl ether], the odorant receptor activation amounted to 1.38.

`O=CCc1ccccc1` [phenyl acetaldehyde] showed an odorant receptor activation of 0.969.

Take `CC1CCC(C(C)C)C(O)C1` (single isomer, unassigned; (+)) [(+)-menthol]: the odorant receptor activation amounted to 1.03.

`C=CCc1ccc(OC(C)=O)c(OC)c1` [eugenol acetate]: the odorant receptor activation amounted to 1.53.

A further test has as its system OR10A3 clone 1416. The description is as above. The following applies: 100 µM.
For `CC1CCC(C(C)C)C(O)C1` (single isomer, unassigned; (-)) [(-)-menthol], the odorant receptor activation amounted to 1.28.

On to `C=CCSCC=C` [diallyl sulfide], for which the odorant receptor activation is 1.14.

`CC(C)=CCCC(C)=CC=O` [citral]: the odorant receptor activation was 0.199.

On to `COc1cc(C)ccc1O` [2-methoxy-4-methylphenol], for which the odorant receptor activation amounted to 0.785.

The compound `CC(=O)OC(C)(C)C1CC=C(C)CC1` (centres undefined) [terpinyl acetate] displayed an odorant receptor activation of 0.851.

Turning to `CCCCCCCCC=O` [nonyl aldehyde], the odorant receptor activation was determined as 0.772.

Regarding `O=C1CCCCCCCCCCCC(=O)OCCO1` [ethylene brassylate], the odorant receptor activation amounted to 1.92.

Consider `CCCCCCCCOC(C)=O` [octyl acetate], for which the odorant receptor activation amounted to 0.731.

Compound `c1ccc(Oc2ccccc2)cc1` [diphenyl ether] returned an odorant receptor activation of 1.16.

`CCCCCCCC=CC=O` [2-decenal] gave an odorant receptor activation of 0.971.

Compound `CC(C)C(=O)O` [isobutyric acid] had an odorant receptor activation of 1.04.

`CCCCCCOC(=O)CCC` [hexyl butyrate] came in with an odorant receptor activation of 0.805.

For the compound `C=CCc1ccc(O)c(OC)c1` [eugenol], the odorant receptor activation was 1.57 and 1.4.

Compound `CC(=O)OC1CC2CCC1(C)C2(C)C` (centres undefined) [isobornyl acetate] yielded an odorant receptor activation of 0.851.

In turn, `CC(C)C=O` [isobutyraldehyde] gave an odorant receptor activation of 0.905.

For the compound `CCCCCCCCCCC=O` [undecanal], the odorant receptor activation turned out to be 1.07.

`CC1=CCC(C(C)(C)O)CC1` (centres undefined) [terpineol]: the odorant receptor activation was 1.09.

`COC(=O)c1ccccc1O` [methyl salicylate]: the odorant receptor activation was 1.03.

`C=C(C)C1CC=C(C)C(=O)C1` (centres undefined) [r-carvone]: the odorant receptor activation is 1.17.

For `CCCCO` [1-butanol], the odorant receptor activation came out at 0.779.

For `CCC1(O)C2(C)CCC(C2)C1(C)C` (centres undefined) [2-ethylfenchol], the odorant receptor activation came out at 0.779.

Compound `CC12CCC(C1)C(C)(C)C2=O` (centres undefined) [fenchone] returned an odorant receptor activation of 0.951.

Take `CCCCCCCC=O` [octyl aldehyde]: the odorant receptor activation came out at 0.664.

Consider `CC(C)CCC(=O)O` [4-methylvaleric acid], for which the odorant receptor activation worked out at 0.916.

As for `C=CCc1ccc(OC)c(OC)c1` [eugenol methyl ether], the odorant receptor activation worked out at 1.9.

The compound `O=CCc1ccccc1` [phenyl acetaldehyde] gave an odorant receptor activation of 1.37.

`CC1CCC(C(C)C)C(O)C1` (single isomer, unassigned; (+)) [(+)-menthol] displayed an odorant receptor activation of 0.962.

In turn, `C=CCc1ccc(OC(C)=O)c(OC)c1` [eugenol acetate] yielded an odorant receptor activation of 1.71.
